Measured values taken from patent publication US9611485B2, “Polynucleotide and polypeptide sequences associated with herbicide tolerance” (priority 2010, dated 2017).
Some results come without the dose or concentration used.

System: soybean lines
Assay type: in vivo, Glycine max
Conditions: of 116 elite soybean lines screened

**Q.** How did the “number of soybean lines showing at least some tolerance” value turn out when `Cc1nn(-c2cc(NS(C)(=O)=O)c(Cl)cc2Cl)c(=O)n1C(F)F` [sulfentrazone] was run?
**A.** Its value is 102.

**Q.** And the “number of soybean lines showing high sensitivity” value?
**A.** The value was 11.
